## Cell number after 72 h of treatment

Data from the primary screen of doi:10.1371/journal.pone.0140310, rounded.

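The test systems are human melanoma cell lines, treated with two drugs together for 72 h and then stained and imaged. Each value is the count of nuclei relative to DMSO-treated wells, in %, so that 100 equals the control. Concentrations were fixed for each drug; these are the higher of two levels. These are primary screening values without error estimates.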 Only some of the drugs and lines screened are listed, without regard to their results.

Compounds and concentrations:
PF-04217903 (5000 nM): OCCn1cc(-c2cnc3nnn(Cc4ccc5ncccc5c4)c3n2)cn1
ENMD-2076 (200 nM): Cc1cc(Nc2cc(N3CCN(C)CC3)nc(/C=C/c3ccccc3)n2)n[nH]1
XAV939 (10000 nM): Oc1nc(-c2ccc(C(F)(F)F)cc2)nc2c1CSCC2
embelin (6000 nM): CCCCCCCCCCCC1=C(O)C(=O)C=C(O)C1=O
darinaparsin (2000 nM): C[As](C)SC[C@H](NC(=O)CC[C@H](N)C(=O)O)C(=O)NCC(=O)O
nilotinib (1000 nM): Cc1cn(-c2cc(NC(=O)c3ccc(C)c(Nc4nccc(-c5cccnc5)n4)c3)cc(C(F)(F)F)c2)cn1
gemcitabine (2 nM): Nc1ccn([C@@H]2O[C@H](CO)[C@@H](O)C2(F)F)c(=O)n1
stibogluconate (10000 nM): O=C(O)[C@@H]1[O][Sb](=[O])([O][Sb]2(=[O])[O][C@H]([C@H](O)CO)[C@H](O)[C@H](C(=O)O)[O]2)[O][C@H]([C@H](O)CO)[C@@H]1O (stereo not given in full)
vatalanib (10000 nM): Clc1ccc(Nc2nnc(Cc3ccncc3)c3ccccc23)cc1
tanespimycin (10 nM): C=CCNC1=C2C[C@@H](C)C[C@H](OC)[C@H](O)[C@@H](C)/C=C(\C)[C@H](OC(N)=O)[C@@H](OC)/C=C\C=C(/C)C(=O)NC(=CC1=O)C2=O
ruxolitinib (5000 nM): N#CC[C@H](C1CCCC1)n1cc(-c2ncnc3[nH]ccc23)cn1
Src-I1 (10000 nM): COc1cc2ncnc(Nc3ccc(Oc4ccccc4)cc3)c2cc1OC
MK-2206 (2000 nM): NC1(c2ccc(-c3nc4ccn5c(=O)[nH]nc5c4cc3-c3ccccc3)cc2)CCC1
TCS401 (8330 nM): O=C(O)C(=O)Nc1sc2c(c1C(=O)O)CCNC2

{"combination": "gemcitabine + Src-I1", "COLO 800": 77.2, "COLO 829": 46.7, "WM3619": 61.5, "C32": 74.5, "WM451Lu": 56.6, "COLO 792": 52.6}
{"combination": "MK-2206 + darinaparsin", "COLO 800": 56.9, "COLO 829": 83.4, "WM3619": 85.7, "C32": 84.8, "WM451Lu": 65.6, "COLO 792": 47.5}
{"combination": "tanespimycin + XAV939", "COLO 800": 113, "COLO 829": 103, "WM3619": 56.1, "C32": 11.6, "WM451Lu": 102, "COLO 792": 72.1}
{"combination": "vatalanib + gemcitabine", "COLO 800": 38.7, "COLO 829": 31.2, "WM3619": 41.9, "C32": 93.6, "WM451Lu": 45.5, "COLO 792": 49.1}
{"combination": "embelin + vatalanib", "COLO 800": 76.8, "COLO 829": 53.4, "WM3619": 51.7, "C32": 92.2, "WM451Lu": 102, "COLO 792": 68.1}
{"combination": "TCS401 + tanespimycin", "COLO 800": 104, "COLO 829": 80.2, "WM3619": 64.2, "C32": 17.0, "WM451Lu": 75.5, "COLO 792": 110}
{"combination": "gemcitabine + embelin", "COLO 800": 34.3, "COLO 829": 41.7, "WM3619": 55.2, "C32": 88.9, "WM451Lu": 43.4, "COLO 792": 62.5}
{"combination": "gemcitabine + nilotinib", "COLO 800": 67.3, "COLO 829": 106, "WM3619": 75.8, "C32": 94.9, "WM451Lu": 84.8, "COLO 792": 108}
{"combination": "MK-2206 + PF-04217903", "COLO 800": 56.2, "COLO 829": 74.1, "WM3619": 93.0, "C32": 71.6, "WM451Lu": 108, "COLO 792": 66.3}
{"combination": "embelin + MK-2206", "COLO 800": 76.0, "COLO 829": 73.1, "WM3619": 82.3, "C32": 83.7, "WM451Lu": 88.3, "COLO 792": 46.5}
{"combination": "darinaparsin + TCS401", "COLO 800": 94.3, "COLO 829": 88.7, "WM3619": 92.5, "C32": 91.5, "WM451Lu": 70.1, "COLO 792": 71.8}
{"combination": "PF-04217903 + stibogluconate", "COLO 800": 50.8, "COLO 829": 95.3, "WM3619": 93.0, "C32": 96.9, "WM451Lu": 84.7, "COLO 792": 69.3}
{"combination": "vatalanib + ENMD-2076", "COLO 800": 57.3, "COLO 829": 61.0, "WM3619": 54.9, "C32": 89.9, "WM451Lu": 66.1, "COLO 792": 59.4}
{"combination": "ENMD-2076 + ruxolitinib", "COLO 800": 94.2, "COLO 829": 109, "WM3619": 66.7, "C32": 92.9, "WM451Lu": 81.8, "COLO 792": 79.2}
{"combination": "ENMD-2076 + TCS401", "COLO 800": 103, "COLO 829": 79.2, "WM3619": 95.5, "C32": 93.8, "WM451Lu": 76.1, "COLO 792": 118}
{"combination": "TCS401 + vatalanib", "COLO 800": 61.0, "COLO 829": 84.1, "WM3619": 90.5, "C32": 98.2, "WM451Lu": 75.4, "COLO 792": 78.8}
{"combination": "embelin + PF-04217903", "COLO 800": 197, "COLO 829": 73.9, "WM3619": 67.2, "C32": 111, "WM451Lu": 82.4, "COLO 792": 83.0}
{"combination": "ruxolitinib + embelin", "COLO 800": 129, "COLO 829": 85.6, "WM3619": 94.2, "C32": 86.5, "WM451Lu": 75.4, "COLO 792": 72.3}
{"combination": "tanespimycin + ENMD-2076", "COLO 800": 100, "COLO 829": 75.3, "WM3619": 58.5, "C32": 20.2, "WM451Lu": 51.1, "COLO 792": 73.5}
{"combination": "stibogluconate + XAV939", "COLO 800": 85.8, "COLO 829": 95.4, "WM3619": 76.1, "C32": 84.7, "WM451Lu": 82.1, "COLO 792": 82.1}
{"combination": "stibogluconate + ruxolitinib", "COLO 800": 128, "COLO 829": 92.1, "WM3619": 104, "C32": 80.3, "WM451Lu": 102, "COLO 792": 94.9}
{"combination": "darinaparsin + ruxolitinib", "COLO 800": 139, "COLO 829": 90.8, "WM3619": 64.9, "C32": 82.9, "WM451Lu": 58.3, "COLO 792": 76.5}
{"combination": "tanespimycin + darinaparsin", "COLO 800": 83.6, "COLO 829": 59.0, "WM3619": 53.0, "C32": 27.9, "WM451Lu": 45.2, "COLO 792": 57.8}
{"combination": "ENMD-2076 + gemcitabine", "COLO 800": 20.7, "COLO 829": 60.7, "WM3619": 43.9, "C32": 97.5, "WM451Lu": 45.0, "COLO 792": 85.6}
{"combination": "gemcitabine + darinaparsin", "COLO 800": 39.8, "COLO 829": 45.3, "WM3619": 51.8, "C32": 94.3, "WM451Lu": 51.6, "COLO 792": 60.6}
{"combination": "ruxolitinib + XAV939", "COLO 800": 120, "COLO 829": 107, "WM3619": 98.4, "C32": 115, "WM451Lu": 104, "COLO 792": 108}
{"combination": "vatalanib + ruxolitinib", "COLO 800": 38.9, "COLO 829": 62.6, "WM3619": 50.0, "C32": 78.2, "WM451Lu": 72.1, "COLO 792": 75.3}
{"combination": "nilotinib + Src-I1", "COLO 800": 82.2, "COLO 829": 115, "WM3619": 35.9, "C32": 83.3, "WM451Lu": 79.8, "COLO 792": 72.8}
{"combination": "tanespimycin + MK-2206", "COLO 800": 49.9, "COLO 829": 87.0, "WM3619": 57.0, "C32": 18.5, "WM451Lu": 90.4, "COLO 792": 37.8}
{"combination": "Src-I1 + darinaparsin", "COLO 800": 75.5, "COLO 829": 108, "WM3619": 73.7, "C32": 78.1, "WM451Lu": 57.1, "COLO 792": 71.6}
{"combination": "XAV939 + nilotinib", "COLO 800": 80.3, "COLO 829": 122, "WM3619": 74.1, "C32": 98.5, "WM451Lu": 96.6, "COLO 792": 98.4}
{"combination": "MK-2206 + Src-I1", "COLO 800": 117, "COLO 829": 81.8, "WM3619": 64.2, "C32": 52.5, "WM451Lu": 65.4, "COLO 792": 41.4}
{"combination": "nilotinib + tanespimycin", "COLO 800": 100, "COLO 829": 79.5, "WM3619": 72.1, "C32": 19.0, "WM451Lu": 70.1, "COLO 792": 62.7}
{"combination": "PF-04217903 + gemcitabine", "COLO 800": 20.5, "COLO 829": 51.0, "WM3619": 54.7, "C32": 90.3, "WM451Lu": 41.1, "COLO 792": 68.0}
{"combination": "darinaparsin + PF-04217903", "COLO 800": 67.3, "COLO 829": 101, "WM3619": 107, "C32": 88.8, "WM451Lu": 81.9, "COLO 792": 77.4}
{"combination": "ruxolitinib + MK-2206", "COLO 800": 113, "COLO 829": 93.9, "WM3619": 100, "C32": 92.8, "WM451Lu": 109, "COLO 792": 53.4}
{"combination": "nilotinib + MK-2206", "COLO 800": 87.3, "COLO 829": 93.9, "WM3619": 128, "C32": 85.6, "WM451Lu": 106, "COLO 792": 55.9}

Some entries from above, unchanged:

{"combination": "embelin + MK-2206", "COLO 800": 76.0, "COLO 829": 73.1, "WM3619": 82.3, "C32": 83.7, "WM451Lu": 88.3, "COLO 792": 46.5}
{"combination": "ruxolitinib + MK-2206", "COLO 800": 113, "COLO 829": 93.9, "WM3619": 100, "C32": 92.8, "WM451Lu": 109, "COLO 792": 53.4}
{"combination": "tanespimycin + darinaparsin", "COLO 800": 83.6, "COLO 829": 59.0, "WM3619": 53.0, "C32": 27.9, "WM451Lu": 45.2, "COLO 792": 57.8}
{"combination": "TCS401 + tanespimycin", "COLO 800": 104, "COLO 829": 80.2, "WM3619": 64.2, "C32": 17.0, "WM451Lu": 75.5, "COLO 792": 110}